This test deals with Flag–ARTS WT. As to the kind of experiment: co-IP; HEK293T cells cotransfected with Flag–ARTS, HA–Livin and Myc–SIAH1 (WT or mutants); IP with anti-Flag, anti-HA or anti-Myc, immunoblot. In general terms: In western blotting, separated proteins are transferred to a membrane and probed.

Results are given in words; binding and its absence hold for the method and conditions named. Binding seen in cells or lysates may run through a third protein. A result given as binding can be weak or reduced; the word gives no strength. Sequences can lack the tags named with a protein.

For 1 molecule, binding results are on record in article PMC12805590.

B1: hemagglutinin [HA]–Livin WT (protein, UniProt Q96CA5 1-298)
chain: MGPKDSAKCLHRGPQPSHWAAGDGPTQERCGPRSLGSPVLGLDTCRAWDHVDGQILGQLRPLTEEEEEEGAGATLSRGPAFPGMGSEELRLASFYDWPLTAEVPPELLAAAGFFHTGHQDKVRCFFCYGGLQSWKRGDDPWTEHAKWFPSCQFLLRSKGRDFVHSVQETHSQLLGSWDPWEEPEDAAPVAPSVPASGYPELPTPRREVQSESAQEPGGVSPAEAQRAWWVLEPPGARDVEAQLRRLQEERTCKVCLDRAVSIVFVPCGHLVCAECAPGLQLCPICRAPVRSRVRTFLS
On to B1, for which the binding entry is given as “binds”.
